Laboratory results reported in paper PMC3094399.
These are yes or no findings as the source states them, for the method shown. Binding seen in cells or lysates may run through a third protein. A result given as binding can be weak or reduced; the word gives no strength. Tags and fused reporters may be left off the sequences shown.

How the values were obtained:
Assay in all cases: co-IP; COS cells co-transfected with Flag-tagged OR constructs and MKS3 or HA-tagged MKS1; immunoprecipitation with a Flag antibody, blot for MKS3 or for HA (MKS1)
[1] = molecular target: MOR256-21, N-terminal Flag tag
[2] = molecular target: MOR256-25, N-terminal Flag tag
[3] = molecular target: MOR256-24, N-terminal Flag tag
[4] = molecular target: MOR EG, N-terminal Flag tag

binding [1]: binds
binding [2]: binds
binding [3]: binds
binding [4]: binds
B1: Meckel-Gruber syndrome 1 (MKS1), HA-tagged (protein, UniProt Q9NXB0 1-559)
chain: MAETVWSTDTGEAVYRSRDPVRNLRLRVHLQRITSSNFLHYQPAAELGKDLIDLATFRPQPTASGHRPEEDEEEEIVIGWQEKLFSQFEVDLYQNETACQSPLDYQYRQEILKLENSGGKKNRRIFTYTDSDRYTNLEEHCQRMTTAASEVPSFLVERMANVRRRRQDRRGMEGGILKSRIVTWEPSEEFVRNNHVINTPLQTMHIMADLGPYKKLGYKKYEHVLCTLKVDSNGVITVKPDFTGLKGPYRIETEGEKQELWKYTIDNVSPHAQPEEEERERRVFKDLYGRHKEYLSSLVGTDFEMTVPGALRLFVNGEVVSAQGYEYDNLYVHFFVELPTAHWSSPAFQQLSGVTQTCTTKSLAMDKVAHFSYPFTFEAFFLHEDESSDALPEWPVLYCEVLSLDFWQRYRVEGYGAVVLPATPGSHTLTVSTWRPVELGTVAELRRFFIGGSLELEDLSYVRIPGSFKGERLSRFGLRTETTGTVTFRLHCLQQSRAFMESSSLQKRMRSVLDRLEGFSQQSSIHNVLEAFRRARRRMQEARESLPQDLVSPSGTLVS
